1 molecule from patent publication US20110015138A1 (GENUS ONCOLOGY, published 2011) can be followed below.

Sequences of proteins named here, by UniProt entry; tags and fusion partners are left off.
UniProt Q04206: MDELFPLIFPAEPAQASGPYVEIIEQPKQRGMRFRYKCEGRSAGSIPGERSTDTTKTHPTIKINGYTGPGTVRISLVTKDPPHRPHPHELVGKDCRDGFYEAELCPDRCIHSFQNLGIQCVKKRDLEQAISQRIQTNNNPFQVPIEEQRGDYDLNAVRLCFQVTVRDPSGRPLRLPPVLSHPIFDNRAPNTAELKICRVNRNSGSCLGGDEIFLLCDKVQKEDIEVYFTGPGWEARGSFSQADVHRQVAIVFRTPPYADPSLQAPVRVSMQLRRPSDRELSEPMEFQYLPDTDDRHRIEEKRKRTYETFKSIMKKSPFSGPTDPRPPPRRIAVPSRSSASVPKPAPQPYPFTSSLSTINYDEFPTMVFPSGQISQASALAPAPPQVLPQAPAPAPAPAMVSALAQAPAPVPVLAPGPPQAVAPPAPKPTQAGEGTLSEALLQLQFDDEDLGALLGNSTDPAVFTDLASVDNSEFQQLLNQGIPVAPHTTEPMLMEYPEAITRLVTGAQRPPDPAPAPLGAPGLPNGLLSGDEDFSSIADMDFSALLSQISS
UniProt P40763: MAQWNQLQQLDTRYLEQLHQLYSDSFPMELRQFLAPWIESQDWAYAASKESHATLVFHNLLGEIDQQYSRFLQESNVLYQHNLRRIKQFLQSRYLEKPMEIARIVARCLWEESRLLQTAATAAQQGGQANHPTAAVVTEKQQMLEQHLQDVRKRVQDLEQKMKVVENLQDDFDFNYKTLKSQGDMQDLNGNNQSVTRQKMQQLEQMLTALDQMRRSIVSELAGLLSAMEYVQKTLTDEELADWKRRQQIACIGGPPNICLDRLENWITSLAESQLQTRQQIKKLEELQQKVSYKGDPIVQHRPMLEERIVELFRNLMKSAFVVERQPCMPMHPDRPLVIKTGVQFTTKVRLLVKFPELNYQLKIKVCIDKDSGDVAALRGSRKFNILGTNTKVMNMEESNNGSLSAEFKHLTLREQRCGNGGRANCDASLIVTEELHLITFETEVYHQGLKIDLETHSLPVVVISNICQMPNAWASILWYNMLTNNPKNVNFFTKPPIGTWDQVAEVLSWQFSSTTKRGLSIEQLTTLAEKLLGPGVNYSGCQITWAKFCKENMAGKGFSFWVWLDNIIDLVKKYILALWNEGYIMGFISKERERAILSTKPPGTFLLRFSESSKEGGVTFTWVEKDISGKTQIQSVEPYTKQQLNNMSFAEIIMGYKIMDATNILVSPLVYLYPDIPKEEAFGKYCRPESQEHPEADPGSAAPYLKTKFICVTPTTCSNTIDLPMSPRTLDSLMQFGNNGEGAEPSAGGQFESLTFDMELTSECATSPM

These are yes or no findings as the source states them, for the method shown. Some results given as binding are weak or reduced against the parent protein; the word gives no strength. Tags and fused reporters may be left off the sequences shown.

Test [1] has as its target T1, purified recombinant NF-κB p65 (UniProt Q04206 1-551, limits assumed).
T1 construct: also called purified NF-κB p65
The test is described as follows: GST pull-down of purified recombinant p65 with MUC1-CD deletion mutants.

In test [2] the target is purified recombinant STAT3 (UniProt P40763 1-770, limits assumed). Kind of test: GST pull-down of purified recombinant STAT3 with MUC1-CD deletion mutants.

As to YEKVSAGNGGSSLSYTNPAVAATSANL (peptide, not shown: a dimerising Fc or GST) [GST-MUC1-CD(46-72)], the binding result in test [1] and in test [2] was “binds” in each case.
